{"source": "patent US9700516B2", "about": "“Compositions and methods for reducing overdose” (priority 2014, dated 2017)", "assay": "Effect of alkalinizing agents on the pH of a solution of 0.1 N HCl with a starting pH of 2.0", "type": "physicochemical", "method": "Various alkalinizing agents were added to a solution of 0.1 N HCl with a starting pH of 2.0 and the pH of the solution was tested at different time points.", "note": "The source gives many values for each of these; only a part stands here.", "data": [{"smiles": "[O]=[Mg]", "note": "[MgO, magnesium oxide]", "values": [{"measurement": "pH", "setting": "80 mg powder/200 ml, 1 min", "value": 2.50}, {"measurement": "pH", "setting": "80 mg powder/200 ml, 2 min", "value": 4.09}, {"measurement": "pH", "setting": "80 mg powder/200 ml, 3 min", "value": 5.72}, {"measurement": "pH", "setting": "80 mg powder/200 ml, 50 min", "value": 10.13}, {"measurement": "pH", "setting": "80 mg powder/200 ml, 60 min", "value": 10.13}, {"measurement": "pH", "setting": "80 mg, Granular/200 ml, 1 min", "value": 2.17}, {"measurement": "pH", "setting": "80 mg, Granular/200 ml, 2 min", "value": 2.30}, {"measurement": "pH", "setting": "80 mg, Granular/200 ml, 3 min", "value": 2.45}, {"measurement": "pH", "setting": "80 mg, Granular/200 ml, 40 min", "value": 9.47}, {"measurement": "pH", "setting": "80 mg, Granular/200 ml, 50 min", "value": 9.47}, {"measurement": "pH", "setting": "80 mg, Granular/200 ml, 60 min", "value": 9.47}, {"measurement": "pH", "setting": "100 mg powder/200 ml, 1 min", "value": 2.37}, {"measurement": "pH", "setting": "100 mg powder/200 ml, 2 min", "value": 2.37}, {"measurement": "pH", "setting": "100 mg powder/200 ml, 3 min", "value": 2.37}, {"measurement": "pH", "setting": "100 mg powder/200 ml, 50 min", "value": 9.02}, {"measurement": "pH", "setting": "100 mg powder/200 ml, 60 min", "value": 9.02}, {"measurement": "pH", "setting": "120 mg powder/200 ml, 1 min", "value": 4.45}, {"measurement": "pH", "setting": "120 mg powder/200 ml, 2 min", "value": 5.50}, {"measurement": "pH", "setting": "120 mg powder/200 ml, 3 min", "value": 6.01}, {"measurement": "pH", "setting": "120 mg powder/200 ml, 40 min", "value": 8.21}, {"measurement": "pH", "setting": "120 mg powder/200 ml, 50 min", "value": 8.21}, {"measurement": "pH", "setting": "120 mg powder/200 ml, 60 min", "value": 8.21}]}, {"smiles": "[Mg+2].[OH-].[OH-]", "note": "[magnesium hydroxide]", "values": [{"measurement": "pH", "setting": "60 mg per 320 mL, 0 min", "value": 2.03}, {"measurement": "pH", "setting": "60 mg per 320 mL, 1 min", "value": 2.17}, {"measurement": "pH", "setting": "60 mg per 320 mL, 30 min", "value": 2.50}, {"measurement": "pH", "setting": "60 mg per 320 mL, 40 min", "value": 2.50}, {"measurement": "pH", "setting": "60 mg per 320 mL, 50 min", "value": 2.50}, {"measurement": "pH", "setting": "60 mg per 320 mL, 60 min", "value": 2.53}, {"measurement": "pH", "setting": "60 mg per 500 mL, 0 min", "value": 2.01}, {"measurement": "pH", "setting": "60 mg per 500 mL, 1 min", "value": 2.06}, {"measurement": "pH", "setting": "60 mg per 500 mL, 30 min", "value": 2.19}, {"measurement": "pH", "setting": "60 mg/200 ml, 1 min", "value": 2.50}, {"measurement": "pH", "setting": "60 mg/200 ml, 2 min", "value": 2.66}, {"measurement": "pH", "setting": "60 mg/200 ml, 3 min", "value": 2.83}, {"measurement": "pH", "setting": "60 mg/200 ml, 4 min", "value": 2.92}, {"measurement": "pH", "setting": "60 mg/200 ml, 5 min", "value": 2.96}, {"measurement": "pH", "setting": "60 mg/200 ml, 6 min", "value": 2.99}, {"measurement": "pH", "setting": "60 mg/200 ml, 7 min", "value": 2.99}, {"measurement": "pH", "setting": "60 mg/200 ml, 8 min", "value": 3.00}, {"measurement": "pH", "setting": "60 mg/200 ml, 9 min", "value": 3.00}, {"measurement": "pH", "setting": "60 mg/200 ml, 10 min", "value": 3.00}, {"measurement": "pH", "setting": "60 mg/200 ml, 20 min", "value": 3.01}, {"measurement": "pH", "setting": "60 mg/200 ml, 30 min", "value": 3.01}, {"measurement": "pH", "setting": "60 mg/200 ml, 40 min", "value": 3.01}, {"measurement": "pH", "setting": "60 mg/200 ml, 50 min", "value": 3.01}, {"measurement": "pH", "setting": "60 mg/200 ml, 60 min", "value": 3.01}, {"measurement": "pH", "setting": "71 mg/200 ml, 1 min", "value": 2.45}, {"measurement": "pH", "setting": "71 mg/200 ml, 2 min", "value": 2.83}, {"measurement": "pH", "setting": "71 mg/200 ml, 3 min", "value": 3.18}, {"measurement": "pH", "setting": "71 mg/200 ml, 4 min", "value": 3.48}, {"measurement": "pH", "setting": "71 mg/200 ml, 5 min", "value": 3.70}, {"measurement": "pH", "setting": "71 mg/200 ml, 6 min", "value": 3.91}, {"measurement": "pH", "setting": "71 mg/200 ml, 7 min", "value": 4.13}, {"measurement": "pH", "setting": "71 mg/200 ml, 8 min", "value": 4.31}, {"measurement": "pH", "setting": "71 mg/200 ml, 9 min", "value": 4.48}, {"measurement": "pH", "setting": "71 mg/200 ml, 10 min", "value": 4.63}, {"measurement": "pH", "setting": "71 mg/200 ml, 20 min", "value": 5.40}, {"measurement": "pH", "setting": "71 mg/200 ml, 30 min", "value": 5.72}, {"measurement": "pH", "setting": "71 mg/200 ml, 40 min", "value": 6.05}, {"measurement": "pH", "setting": "71 mg/200 ml, 50 min", "value": 6.73}, {"measurement": "pH", "setting": "71 mg/200 ml, 60 min", "value": 7.08}, {"measurement": "pH", "setting": "81 mg/200 ml, 1 min", "value": 2.50}, {"measurement": "pH", "setting": "81 mg/200 ml, 2 min", "value": 3.01}, {"measurement": "pH", "setting": "81 mg/200 ml, 3 min", "value": 3.66}, {"measurement": "pH", "setting": "81 mg/200 ml, 4 min", "value": 5.01}, {"measurement": "pH", "setting": "81 mg/200 ml, 5 min", "value": 5.30}, {"measurement": "pH", "setting": "81 mg/200 ml, 6 min", "value": 5.50}, {"measurement": "pH", "setting": "81 mg/200 ml, 7 min", "value": 5.65}, {"measurement": "pH", "setting": "81 mg/200 ml, 8 min", "value": 5.80}, {"measurement": "pH", "setting": "81 mg/200 ml, 9 min", "value": 5.87}, {"measurement": "pH", "setting": "81 mg/200 ml, 10 min", "value": 5.92}, {"measurement": "pH", "setting": "81 mg/200 ml, 20 min", "value": 6.60}, {"measurement": "pH", "setting": "81 mg/200 ml, 30 min", "value": 6.92}, {"measurement": "pH", "setting": "81 mg/200 ml, 40 min", "value": 7.25}, {"measurement": "pH", "setting": "81 mg/200 ml, 50 min", "value": 7.51}, {"measurement": "pH", "setting": "81 mg/200 ml, 60 min", "value": 8.00}, {"measurement": "pH", "setting": "90 mg per 320 mL, 0 min", "value": 2.05}, {"measurement": "pH", "setting": "90 mg per 320 mL, 1 min", "value": 2.19}, {"measurement": "pH", "setting": "90 mg per 320 mL, 30 min", "value": 3.37}, {"measurement": "pH", "setting": "90 mg per 320 mL, 40 min", "value": 3.35}, {"measurement": "pH", "setting": "90 mg per 320 mL, 50 min", "value": 3.35}, {"measurement": "pH", "setting": "90 mg per 320 mL, 60 min", "value": 3.36}, {"measurement": "pH", "setting": "100 mg per 320 mL, 0 min", "value": 2.03}, {"measurement": "pH", "setting": "100 mg per 320 mL, 1 min", "value": 2.15}, {"measurement": "pH", "setting": "100 mg per 320 mL, 30 min", "value": 6.75}, {"measurement": "pH", "setting": "100 mg per 320 mL, 40 min", "value": 6.92}, {"measurement": "pH", "setting": "100 mg per 320 mL, 50 min", "value": 7.01}, {"measurement": "pH", "setting": "100 mg per 320 mL, 60 min", "value": 7.09}, {"measurement": "pH", "setting": "100 mg per 500 mL, 0 min", "value": 2.03}, {"measurement": "pH", "setting": "100 mg per 500 mL, 1 min", "value": 2.10}, {"measurement": "pH", "setting": "100 mg per 500 mL, 30 min", "value": 2.41}, {"measurement": "pH", "setting": "100 mg per 500 mL, 40 min", "value": 2.41}, {"measurement": "pH", "setting": "100 mg per 500 mL, 50 min", "value": 2.41}, {"measurement": "pH", "setting": "100 mg per 500 mL, 60 min", "value": 2.41}, {"measurement": "pH", "setting": "100 mg/200 ml, 1 min", "value": 2.50}, {"measurement": "pH", "setting": "100 mg/200 ml, 2 min", "value": 3.56}, {"measurement": "pH", "setting": "100 mg/200 ml, 3 min", "value": 5.25}, {"measurement": "pH", "setting": "100 mg/200 ml, 4 min", "value": 5.58}, {"measurement": "pH", "setting": "100 mg/200 ml, 5 min", "value": 5.80}, {"measurement": "pH", "setting": "100 mg/200 ml, 6 min", "value": 5.97}, {"measurement": "pH", "setting": "100 mg/200 ml, 7 min", "value": 6.10}, {"measurement": "pH", "setting": "100 mg/200 ml, 8 min", "value": 6.22}, {"measurement": "pH", "setting": "100 mg/200 ml, 9 min", "value": 6.34}, {"measurement": "pH", "setting": "100 mg/200 ml, 10 min", "value": 6.43}, {"measurement": "pH", "setting": "100 mg/200 ml, 20 min", "value": 7.70}, {"measurement": "pH", "setting": "100 mg/200 ml, 30 min", "value": 8.69}, {"measurement": "pH", "setting": "100 mg/200 ml, 40 min", "value": 8.90}, {"measurement": "pH", "setting": "100 mg/200 ml, 50 min", "value": 9.10}, {"measurement": "pH", "setting": "100 mg/200 ml, 60 min", "value": 9.10}, {"measurement": "pH", "setting": "120 mg per 320 mL, 0 min", "value": 2.05}, {"measurement": "pH", "setting": "120 mg per 320 mL, 1 min", "value": 2.25}, {"measurement": "pH", "setting": "120 mg per 320 mL, 30 min", "value": 9.23}, {"measurement": "pH", "setting": "120 mg per 320 mL, 40 min", "value": 9.27}, {"measurement": "pH", "setting": "120 mg per 320 mL, 50 min", "value": 9.24}, {"measurement": "pH", "setting": "120 mg per 500 mL, 0 min", "value": 2.01}, {"measurement": "pH", "setting": "120 mg per 500 mL, 1 min", "value": 2.10}, {"measurement": "pH", "setting": "120 mg per 500 mL, 30 min", "value": 2.60}, {"measurement": "pH", "setting": "120 mg per 500 mL, 40 min", "value": 2.60}, {"measurement": "pH", "setting": "180 mg per 500 mL, 0 min", "value": 2.05}, {"measurement": "pH", "setting": "180 mg per 500 mL, 1 min", "value": 2.34}, {"measurement": "pH", "setting": "180 mg per 500 mL, 30 min", "value": 9.14}, {"measurement": "pH", "setting": "180 mg per 500 mL, 40 min", "value": 9.16}, {"measurement": "pH", "setting": "180 mg per 500 mL, 50 min", "value": 9.19}, {"measurement": "pH", "setting": "180 mg per 500 mL, 60 min", "value": 9.20}, {"measurement": "pH", "setting": "200 mg per 500 mL, 0 min", "value": 2.03}, {"measurement": "pH", "setting": "200 mg per 500 mL, 1 min", "value": 2.19}, {"measurement": "pH", "setting": "240 mg per 500 mL, 0 min", "value": 2.00}, {"measurement": "pH", "setting": "240 mg per 500 mL, 1 min", "value": 2.17}]}]}
